PMC3929086, “Targeted manipulation of the sortilin–progranulin axis rescues progranulin haploinsufficiency” (Human Molecular Genetics, 2013)
These are yes or no findings as the source states them, for the method shown. Binding seen in cells or lysates may run through a third protein. Some entries that bind do so weakly or less than the wild type.

By UniProt entry, the sequences of proteins in these tests, tags left out. Residues count along the entry.
UniProt Q99523, residues 78-831: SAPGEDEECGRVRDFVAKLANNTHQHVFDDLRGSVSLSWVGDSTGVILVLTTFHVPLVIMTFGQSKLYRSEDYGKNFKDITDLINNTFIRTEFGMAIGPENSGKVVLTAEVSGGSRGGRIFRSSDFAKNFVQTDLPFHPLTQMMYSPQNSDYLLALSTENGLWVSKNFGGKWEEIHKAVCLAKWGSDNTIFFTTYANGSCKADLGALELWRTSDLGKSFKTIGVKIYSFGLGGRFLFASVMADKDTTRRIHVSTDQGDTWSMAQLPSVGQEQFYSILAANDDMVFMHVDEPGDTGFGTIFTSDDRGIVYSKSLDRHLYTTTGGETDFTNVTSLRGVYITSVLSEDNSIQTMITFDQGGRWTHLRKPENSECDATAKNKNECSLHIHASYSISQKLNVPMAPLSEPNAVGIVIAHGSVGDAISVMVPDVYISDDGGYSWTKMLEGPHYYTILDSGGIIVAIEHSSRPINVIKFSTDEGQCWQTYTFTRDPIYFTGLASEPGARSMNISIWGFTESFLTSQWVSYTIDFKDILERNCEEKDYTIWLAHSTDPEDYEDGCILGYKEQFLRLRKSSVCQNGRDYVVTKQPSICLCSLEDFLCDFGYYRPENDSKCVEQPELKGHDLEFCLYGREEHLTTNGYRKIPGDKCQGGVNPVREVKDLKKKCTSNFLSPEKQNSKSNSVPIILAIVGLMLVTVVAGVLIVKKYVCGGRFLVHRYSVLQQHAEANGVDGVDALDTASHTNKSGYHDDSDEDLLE

Molecular target: SORT1-Flag (sortilin with C-terminal Flag tag), in HEK293T lysate (human) (UniProt Q99523)
Test: co-IP; 300 ug lysate of HEK293T cells with SORT1-Flag, pre-incubated 1 h with or without 20 uM NTS, human PGRN(588-593) or mouse PGRN(584-589) peptide; rPGRN 100 nM added for 30 min; anti-Flag M2 agarose 4 h; western blot; only the binder purified

binding	Binder
binds	ELYENKPRRPYIL [neurotensin (NTS)]
binds	VPRPLL [mouse Pgrn_(584-589) peptide]
binds	ALRQLL [human PGRN_(588-593) peptide]
